Measured values reported in patent US6881557.
Results are given in words; binding and its absence hold for the method and conditions named. Some entries that bind do so weakly or less than the wild type.

Sequences of proteins named here, by UniProt entry; tags and fusion partners are left off. Residues count along the entry.
UniProt P10747, residues 19-152: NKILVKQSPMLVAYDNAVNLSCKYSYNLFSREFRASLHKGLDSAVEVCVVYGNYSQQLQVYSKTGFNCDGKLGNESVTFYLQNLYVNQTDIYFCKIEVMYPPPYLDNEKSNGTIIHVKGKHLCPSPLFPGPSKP

Biological target: CD28Ig (human) (UniProt P10747)
Assay: ELISA on CD28Ig-coated plates, detected with anti-human kappa immunoconjugate

B1: humanized anti-human CD28 (Hu.9.3) Fab fragment (Fab, V domains shown)
VH: EVQLVQSGGGLVQPGGSLRLSCAGSGFTFSDYGVHWVRQAPGKGLEWVSAIWAGGGTNYASSVMGRFTISRDNAKNSLYLQMNSLRAEDMAVYYCARDKGYSYYYSMDYWGQGTLVTVSS
VL: DIVMTQSPDSLAVSLGERATINCRASESVEYYVTSLMAWYQQKPGQPPKLLIYAASNVESGVPDRFSGSGSGTNFSLTISSLQAEDVAVYYCQQSRKVPYTFGQGTKLEIKR
binding: binds
